Measured values as given in PubChem BioAssay AID602441 (National Center for Advancing Translational Sciences (NCATS), 2012).
Among all 1,300 compounds or so, fewer than 10 were called active. Another 9% or so got no clear call; they are omitted. The call rests on the fitted dose curve; in most records, active means well fitted curve in the direction sought with a large enough effect; inconclusive means small, poorly fitted or top-dose-only effect, or another doubt; inactive means no such curve, though single readings can be large or run the other way. This is one part of the list.

Test: qHTS for antagonists of the Thyroid Stimulation Hormone Receptor: Hit Validation in Parental Cell Line; further: 0% is about no effect
Conditions: parental HEK293 cells lacking TSHR, counter-screen; series mostly up to 56.9 µM; activity change, negative = inhibition: at the top concentration
Method in brief: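 Counterscreen in untransfected parental HEK-EM 293 cells. Lysate cAMP displaces cAMP-d2 from cryptate-tagged anti-cAMP antibody, and homogeneous TR-FRET is read at 665 nm with 337 nm excitation after stimulation.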

SMILES | activity change, negative = inhibition
S=C(Nc1ccc(Oc2ccccc2)cc1)NC1CCCCCC1 | inactive: -4.61%
Nc1ccc(C(=O)NC2CCSc3ccccc32)cc1[N+](=O)[O-] (configuration not stated) | inactive: -2.66%
NC(=O)c1ccc(CN2CCc3ccccc3C2)cc1 | inactive: 6.3%
CCCCCC/C(C)=C1/SC(=S)NC1=O | inactive: -0.358%
O=C(NCCc1ccccc1)c1cc2ccccc2oc1=O | inactive: 2.61%
N#CC1=C(C2CC2)CC(c2ccccc2)C(C#N)=C1N (configuration not stated) | inactive: -1.46%
CCN(C(=O)CSc1nnc(CNc2cccc(OC)c2)n1C1CCCCC1)C1CCS(=O)(=O)C1 (configuration not stated) | inactive: 0.952%
CN(C)S(=O)(=O)c1cccc(-c2nnc(SCc3ccc4c(c3)OCCO4)o2)c1 | inactive: 1.15%
O=C(NCCc1ccc(Cl)cc1Cl)c1cc([N+](=O)[O-])c[nH]c1=O | inactive: -4.69%
O=C(COc1ccc(Cl)cc1)NCc1nnc(SCC(=O)NC2CCCCC2)o1 | inactive: 5.29%
CC(C)c1ccc(OCC(=O)Nc2cccc3c2CCCC3)cc1 | inactive: 4.59%
CCOC(=O)c1cc(C(=O)Nc2sc3c(c2C#N)CCCC3)nn1C | inactive: 3.84%
CC(C)(C)n1ncc2c(=O)n(Cc3ccccc3Br)cnc21 | inactive: 6.76%
Nc1nc(SCc2ccccc2Cl)ns1 | inactive: 0.398%
Cc1ccc(F)cc1CNC(=O)c1cc(COc2ccc3ncccc3c2)on1 | inactive: -2.37%
CC(=O)c1cccc(NS(=O)(=O)c2cc(-c3cnc(C4CC4)o3)ccc2C)c1 | inactive: -0.156%
O=C(Nc1cccc(F)c1)c1ccc(CSc2ccccc2)o1 | inactive: 2.64%
CCOc1cc(NC(=O)C2CC2)c(OCC)cc1NC(=O)c1cccc(F)c1 | inactive: 2.32%
COc1ccccc1CNS(=O)(=O)c1cc(-c2cc(C)no2)ccc1C(C)C | inactive: -0.557%
CCOC(=O)c1c(NC(=O)/C=C/C(=O)O)sc(C)c1-c1ccc(C)c(C)c1 | inactive: 4.1%
Cc1c(Nc2cc(Cl)c3nonc3c2[N+](=O)[O-])c(=O)n(-c2ccccc2)n1C | inactive: -9.16%
COc1ccc(-c2csc3ncn(Cc4ccccc4)c(=O)c23)cc1 | inactive: 0.99%
O=C(NCc1ccccc1)c1c(Cl)nc(Cl)c(Cl)c1Cl | inactive: -11.5%

SMILES | activity change, negative = inhibition
CCOC(=O)c1c(NC(=O)/C=C/C(=O)O)sc(C)c1-c1ccc(Cl)cc1 | inactive: -1.94%
CS(=O)(=O)Cc1ccc(C(=O)Nc2cccc(-c3nc4ccccc4[nH]3)c2)cc1 | inactive: -7.89%
O=C(Nc1ccc2oc(-c3ccccc3F)nc2c1)c1ccc2c(c1)OCCO2 | inactive: -11%
O=c1/c(=C/c2ccc(O)c([N+](=O)[O-])c2)sc2nc3ccccc3n12 | inactive: -4.96%
CS(=O)(=O)c1nc(-c2ccc(Br)cc2)cc(-c2ccccc2)c1C#N | inactive: 6.28%
CCOC(=O)c1c(S(=O)(=O)NCC(=O)Nc2cccc(C)c2C)c(C)n(C)c1C | inactive: 2.95%
CCCC(=O)Nc1nnc(CCc2ccccc2)s1 | inactive: 5%
CCc1ccccc1NC(=O)C1CCCN(S(=O)(=O)c2ccc3c(c2)CC(C)N3C(C)=O)C1 (configuration not stated) | inactive: 4.8%
CS(=O)(=O)c1ccc(N2CCN(c3ccccn3)CC2)c([N+](=O)[O-])c1 | inactive: -5.48%
CC1CCN(S(=O)(=O)c2cccc(C(=O)N3CCN(c4ccc(F)cc4)CC3)c2)CC1 | inactive: -5.01%
COc1ccccc1C(=O)NCCC(=O)Nc1ccc(OC(F)(F)F)cc1 | inactive: -0.431%
CC1=C(C(=O)N2CCCC(N3CCN(c4ccccc4C)CC3)C2)OCCO1 (configuration not stated) | inactive: -8.67%
Cc1ccc(CCC(=O)NCc2ccccc2)o1 | inactive: 2.01%
Cc1ccc(S(=O)(=O)Nc2ccc(N=Nc3ccc(O)cc3)cc2)cc1 | inactive: -1.29%
CC1=NN(C(N)=S)C(=O)C1N=Nc1ccc(Cl)cc1Cl (configuration not stated) | inactive: -1.36%
COc1ccc(-n2c(SCC(=O)Nc3cc(C)on3)nc3c(c2=O)SCC3)cc1OC | inactive: 1.65%
O=C1CSc2nc3ccccc3n21 | inactive: 4.76%
COc1ccc2nc(C)cc(N3CCN(S(=O)(=O)c4ccccc4F)CC3)c2c1 | inactive: -1.34%
O=C(Nc1cc(Sc2nc3ccccc3s2)cc([N+](=O)[O-])c1)c1ccccc1F | inactive: -0.575%
CC(Oc1ccc(Cl)cc1Cl)c1nc(-c2ccc(NC(=O)c3cccnc3)cc2)no1 (configuration not stated) | inactive: -8.59%
O=C(c1ccco1)N1N=C(C2CCCCC2)CC1(O)C(F)(F)F (configuration not stated) | inactive: 6.07%
O=C(O)c1ccc(CNC(=O)c2ccc3c(c2)C(=O)N(Cc2cccnc2)C3=O)cc1 | inactive: 6.1%
Cc1ccccc1-n1nnnc1SC1CCOC1=O (configuration not stated) | inactive: 6.33%

By substructure: those above with a cyano group.
SMILES | activity change, negative = inhibition
N#CC1=C(C2CC2)CC(c2ccccc2)C(C#N)=C1N (configuration not stated) | inactive: -1.46%
CCOC(=O)c1cc(C(=O)Nc2sc3c(c2C#N)CCCC3)nn1C | inactive: 3.84%
CS(=O)(=O)c1nc(-c2ccc(Br)cc2)cc(-c2ccccc2)c1C#N | inactive: 6.28%

Some of these compounds in order of molecular weight, high to low:
SMILES | activity change, negative = inhibition
O=C(O)c1ccc(CNC(=O)c2ccc3c(c2)C(=O)N(Cc2cccnc2)C3=O)cc1 | inactive: 6.1%
CS(=O)(=O)Cc1ccc(C(=O)Nc2cccc(-c3nc4ccccc4[nH]3)c2)cc1 | inactive: -7.89%
O=C1CSc2nc3ccccc3n21 | inactive: 4.76%

The list continues:

SMILES | activity change, negative = inhibition
Cc1nn(Cc2ccccc2)c(C)c1NC(=O)c1noc2c1CCc1ccccc1-2 | inactive: 4.71%
COc1ccc2nc(NC(=O)c3ccccc3[N+](=O)[O-])sc2c1 | inactive: -3.72%
O=C(Nc1nc(-c2ccc(Cl)cc2Cl)cs1)c1ccc(OCC2CCCO2)cc1 (configuration not stated) | inactive: 4.62%
CCOc1ccc(NS(=O)(=O)c2cc(NC(=O)c3cccc(C)c3)ccc2Cl)cc1 | inactive: 3.25%
O=C(Nc1ccccc1)c1ccc(Br)c(S(=O)(=O)Nc2cccnc2)c1 | inactive: -0.476%
O=C(NC1CCCCC1)c1cc(-c2ccccc2O)on1 | inactive: -7.24%
CC(C)OCCCn1c(=O)c2ccccc2n2c(CCC(=O)NC3CCN(Cc4ccccc4)CC3)nnc12 | inactive: 4.01%
CSc1nc(N)nc(SCC(=O)Nc2ccc(Cl)cc2)c1C#N | inactive: -1.2%
Cc1nnc(Sc2cc(NCCCO)c([N+](=O)[O-])c3nonc23)s1 | inactive: 3.76%
C#C[C@]1(OC(C)=O)CCC2C3CCC4=CC(=O)CC[C@@H]4C3CC[C@@]21C (some centres not stated) | inactive: -2.83%
O=C(COc1cccc2ccccc12)Nc1ccc(Cl)cc1C(=O)O | inactive: 3.1%
CCN(CC)S(=O)(=O)c1cccc(NC(=O)CNc2cccc(S(=O)(=O)N3CCOCC3)c2)c1 | inactive: 0.271%
Cc1ccc(O)c(N=Cc2cc(Cc3ccccc3)cc([N+](=O)[O-])c2O)c1 | inactive: 1.98%
Cc1csc2ncnc(N3CCN(S(=O)(=O)c4cccc(C(F)(F)F)c4)CC3)c12 | inactive: -0.152%
O=C1NC(=O)/C(=C/c2ccccc2Oc2ccc(Cl)cc2)S1 | inactive: 0.88%
Cc1cc2c(NCCc3ccccc3)ncnc2s1 | inactive: 3.32%
CSc1cccc(NC(=O)CN2C(=O)COc3ccc(S(=O)(=O)N4CCOCC4)cc32)c1 | inactive: 4.44%
Cc1cc(OCC(=O)Nc2cccc(S(=O)(=O)N3CCCC3)c2)ccc1Cl | inactive: -7.7%
COc1ccc(-c2csc(/C(C#N)=C\c3ccc(O)c([N+](=O)[O-])c3)n2)cc1OC | inactive: -6.65%
COc1ccc(OC)c2c1C(=O)C(Cl)=C(Cl)C2=O | inactive: -19.3%
C#CCn1c(=NC(=O)c2cccs2)sc2cccc(OC)c21 | inactive: 1.74%
